Laboratory results published in US8536139B2, “Compositions comprising lipoteichoic acid for use in treating pleural effusion or pneumothorax” (ISIS Innovation Limited, priority 2007, dated 2013).

Test system: adults with histocytologically proven malignant pleural effusion
Assay: Phase I/IIa trial of intrapleural LTA-T: dose escalation and toxicity
Type: in vivo, human
Text: The study was a phase I/IIa toxicity/non-randomised “proof of concept” efficacy trial. The protocol included administration of an intrapleural saline control followed by seven days pleural fluid production measurement prior to the administration of LTA-T to allow the assessment of any side-effects from LTA-T administration, and both acute pleural fluid production changes and the frequency of long-term pleurodesis efficacy after intrapleural LTA-T (see FIG. 1).
The subjects were adults (aged≧18) with histocytologically proven malignant pleural effusion requiring symptomatic treatment.
After informed consent, an indwelling pleural catheter (PleurX, Denver, Colo.) was placed in the pleural effusion and the pleural space fully drained. Markers of toxicity (clinical symptoms, blood parameters, performance status) were recorded daily on the first 14 days of the study and at intervals thereafter (FIG. 1).
After initial complete fluid drainage, 30 mls intra-pleural saline (saline control) was administered (day 1). The daily pleural fluid drainage was then recorded for seven days to quantify the rate of production of pleural fluid. […]
Patient symptoms, performance status, radiographic pleural fluid recurrence (chest radiograph), adverse events and the clinical need for further pleural fluid drainage was assessed on days 22, 43, 64, 85. […]

Substance: lipoteichoic acid T [LTA-T]
- Therapeutic dose per kg (equating to 750-1500 mcg): 0.01 to 0.02 mg/kg
- Therapeutic dose (intrapleural, based on detectable systemic inflammation (white cell count rise)): 750 to 1500 µg
